Experimental data as given in the supplement of paper PMC10849652.
This is one part of the list.

Protein sequences, listed by entry. Tags and fused reporters are not part of them. Lines headed by an entry give the natural chain unless they say otherwise; changes in a name come on top.
UniProt Q9UBE8: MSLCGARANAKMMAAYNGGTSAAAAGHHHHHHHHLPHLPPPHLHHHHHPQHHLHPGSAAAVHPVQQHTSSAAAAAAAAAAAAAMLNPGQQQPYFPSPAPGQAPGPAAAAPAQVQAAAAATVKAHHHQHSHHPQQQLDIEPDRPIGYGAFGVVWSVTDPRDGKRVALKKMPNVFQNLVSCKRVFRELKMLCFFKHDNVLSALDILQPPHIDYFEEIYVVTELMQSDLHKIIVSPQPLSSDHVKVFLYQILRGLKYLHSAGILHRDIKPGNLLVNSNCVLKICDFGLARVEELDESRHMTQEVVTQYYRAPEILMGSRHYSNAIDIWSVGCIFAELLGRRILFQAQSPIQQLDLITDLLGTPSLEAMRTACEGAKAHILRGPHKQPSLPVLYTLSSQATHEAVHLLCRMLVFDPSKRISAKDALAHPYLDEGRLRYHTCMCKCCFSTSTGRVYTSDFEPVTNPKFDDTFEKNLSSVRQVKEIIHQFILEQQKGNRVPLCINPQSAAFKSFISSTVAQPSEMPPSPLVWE
UniProt Q86SG6: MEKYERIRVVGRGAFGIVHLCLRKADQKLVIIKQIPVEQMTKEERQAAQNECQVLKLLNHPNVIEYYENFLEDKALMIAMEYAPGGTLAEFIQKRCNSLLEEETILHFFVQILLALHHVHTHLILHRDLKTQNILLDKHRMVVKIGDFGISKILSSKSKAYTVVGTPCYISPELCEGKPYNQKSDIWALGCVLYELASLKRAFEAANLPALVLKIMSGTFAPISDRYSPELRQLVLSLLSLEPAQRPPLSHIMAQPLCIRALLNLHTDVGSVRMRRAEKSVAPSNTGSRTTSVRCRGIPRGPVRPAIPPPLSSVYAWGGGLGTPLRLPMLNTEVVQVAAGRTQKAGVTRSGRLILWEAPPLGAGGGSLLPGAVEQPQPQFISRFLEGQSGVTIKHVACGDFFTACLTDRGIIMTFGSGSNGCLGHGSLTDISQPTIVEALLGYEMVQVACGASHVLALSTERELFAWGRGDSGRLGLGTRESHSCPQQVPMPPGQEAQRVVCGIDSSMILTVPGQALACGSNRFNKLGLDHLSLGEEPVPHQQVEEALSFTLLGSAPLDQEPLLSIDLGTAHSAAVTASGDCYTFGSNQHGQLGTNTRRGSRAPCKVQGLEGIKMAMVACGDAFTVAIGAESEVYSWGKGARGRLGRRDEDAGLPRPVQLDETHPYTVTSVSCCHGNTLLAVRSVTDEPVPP
UniProt Q7Z628: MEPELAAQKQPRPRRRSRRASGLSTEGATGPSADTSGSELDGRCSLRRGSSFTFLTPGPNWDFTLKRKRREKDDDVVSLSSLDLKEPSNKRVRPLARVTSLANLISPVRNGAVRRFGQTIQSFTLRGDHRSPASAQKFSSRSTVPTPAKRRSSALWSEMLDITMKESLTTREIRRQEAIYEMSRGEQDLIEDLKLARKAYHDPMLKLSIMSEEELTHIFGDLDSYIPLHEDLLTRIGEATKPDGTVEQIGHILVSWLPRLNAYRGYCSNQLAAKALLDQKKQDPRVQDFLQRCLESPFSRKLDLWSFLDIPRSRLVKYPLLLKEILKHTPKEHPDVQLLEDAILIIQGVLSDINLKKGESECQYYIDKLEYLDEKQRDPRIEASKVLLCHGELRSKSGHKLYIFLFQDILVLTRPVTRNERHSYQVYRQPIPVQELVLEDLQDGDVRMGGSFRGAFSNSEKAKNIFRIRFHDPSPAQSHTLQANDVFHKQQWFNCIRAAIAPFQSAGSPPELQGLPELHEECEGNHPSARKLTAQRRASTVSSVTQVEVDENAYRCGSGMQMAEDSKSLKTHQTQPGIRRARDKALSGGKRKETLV
UniProt Q00653: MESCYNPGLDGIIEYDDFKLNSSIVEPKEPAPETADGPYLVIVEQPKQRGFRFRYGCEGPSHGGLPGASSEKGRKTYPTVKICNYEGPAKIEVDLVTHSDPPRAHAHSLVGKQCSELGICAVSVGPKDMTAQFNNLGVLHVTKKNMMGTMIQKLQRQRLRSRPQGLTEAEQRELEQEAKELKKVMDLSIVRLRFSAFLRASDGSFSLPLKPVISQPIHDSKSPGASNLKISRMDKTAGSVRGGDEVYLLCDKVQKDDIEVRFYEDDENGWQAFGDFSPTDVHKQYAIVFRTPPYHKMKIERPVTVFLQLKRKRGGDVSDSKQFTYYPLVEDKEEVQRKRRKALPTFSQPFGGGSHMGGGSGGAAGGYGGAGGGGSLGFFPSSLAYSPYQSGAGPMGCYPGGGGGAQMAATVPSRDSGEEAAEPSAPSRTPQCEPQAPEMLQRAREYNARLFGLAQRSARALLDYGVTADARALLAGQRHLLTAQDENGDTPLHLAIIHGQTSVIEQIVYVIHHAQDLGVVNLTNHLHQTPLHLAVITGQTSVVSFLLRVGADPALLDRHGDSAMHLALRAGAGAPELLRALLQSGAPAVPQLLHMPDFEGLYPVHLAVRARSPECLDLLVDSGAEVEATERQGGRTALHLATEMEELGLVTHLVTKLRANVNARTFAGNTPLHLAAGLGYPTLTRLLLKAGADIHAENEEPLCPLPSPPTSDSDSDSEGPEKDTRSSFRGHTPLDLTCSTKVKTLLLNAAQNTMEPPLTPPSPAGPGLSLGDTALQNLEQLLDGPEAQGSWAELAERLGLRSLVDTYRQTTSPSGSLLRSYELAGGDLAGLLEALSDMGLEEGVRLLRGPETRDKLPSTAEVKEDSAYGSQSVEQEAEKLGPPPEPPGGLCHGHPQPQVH
UniProt O00221: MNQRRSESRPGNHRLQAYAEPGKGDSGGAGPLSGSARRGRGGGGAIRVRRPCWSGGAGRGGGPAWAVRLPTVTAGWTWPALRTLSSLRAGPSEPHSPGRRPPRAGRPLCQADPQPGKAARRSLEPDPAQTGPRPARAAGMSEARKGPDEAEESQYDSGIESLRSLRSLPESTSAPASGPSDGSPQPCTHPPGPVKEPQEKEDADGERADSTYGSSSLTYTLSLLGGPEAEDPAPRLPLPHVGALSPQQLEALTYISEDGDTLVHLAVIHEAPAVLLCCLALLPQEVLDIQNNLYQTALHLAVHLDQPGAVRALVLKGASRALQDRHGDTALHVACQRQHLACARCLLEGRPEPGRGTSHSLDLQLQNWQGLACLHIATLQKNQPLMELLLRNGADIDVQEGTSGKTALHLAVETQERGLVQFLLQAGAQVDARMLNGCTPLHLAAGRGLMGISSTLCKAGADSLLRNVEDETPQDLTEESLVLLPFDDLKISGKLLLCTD
UniProt Q9NXR1: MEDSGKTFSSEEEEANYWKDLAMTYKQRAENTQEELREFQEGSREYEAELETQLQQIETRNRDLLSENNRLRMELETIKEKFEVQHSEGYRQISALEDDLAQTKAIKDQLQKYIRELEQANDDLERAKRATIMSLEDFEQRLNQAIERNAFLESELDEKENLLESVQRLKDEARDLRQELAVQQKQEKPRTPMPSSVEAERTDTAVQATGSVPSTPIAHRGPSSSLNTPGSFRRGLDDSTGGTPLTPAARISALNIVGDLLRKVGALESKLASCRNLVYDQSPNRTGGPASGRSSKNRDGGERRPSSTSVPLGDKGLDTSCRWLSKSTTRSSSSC
UniProt O43678, whole entry, looked up: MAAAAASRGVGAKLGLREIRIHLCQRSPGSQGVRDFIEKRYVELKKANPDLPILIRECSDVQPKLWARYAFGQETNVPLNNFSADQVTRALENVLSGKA
UniProt O75251, whole entry, looked up: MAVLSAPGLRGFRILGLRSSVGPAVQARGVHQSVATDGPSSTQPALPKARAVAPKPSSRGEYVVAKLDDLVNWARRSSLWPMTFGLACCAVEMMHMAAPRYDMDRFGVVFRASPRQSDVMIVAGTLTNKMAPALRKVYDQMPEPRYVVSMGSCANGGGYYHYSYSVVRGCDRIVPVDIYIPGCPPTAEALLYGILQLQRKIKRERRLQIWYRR
UniProt Q12857, whole entry, looked up: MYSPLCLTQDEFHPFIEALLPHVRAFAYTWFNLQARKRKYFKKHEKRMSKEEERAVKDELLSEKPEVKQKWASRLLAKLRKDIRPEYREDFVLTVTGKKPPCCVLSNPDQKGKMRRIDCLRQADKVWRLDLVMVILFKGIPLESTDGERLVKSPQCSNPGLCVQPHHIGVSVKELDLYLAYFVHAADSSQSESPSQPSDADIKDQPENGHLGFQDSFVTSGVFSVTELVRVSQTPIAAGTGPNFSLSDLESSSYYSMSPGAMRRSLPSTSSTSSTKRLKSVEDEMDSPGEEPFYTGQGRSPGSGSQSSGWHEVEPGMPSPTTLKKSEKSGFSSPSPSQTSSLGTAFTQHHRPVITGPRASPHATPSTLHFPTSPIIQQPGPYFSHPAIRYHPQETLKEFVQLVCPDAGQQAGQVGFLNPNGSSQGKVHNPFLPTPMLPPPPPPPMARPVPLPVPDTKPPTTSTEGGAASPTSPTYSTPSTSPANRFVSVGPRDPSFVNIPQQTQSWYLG
UniProt O43920, whole entry, looked up: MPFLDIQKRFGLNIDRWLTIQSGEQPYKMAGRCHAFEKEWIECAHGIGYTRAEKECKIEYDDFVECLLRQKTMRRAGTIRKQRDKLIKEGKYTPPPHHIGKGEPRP
UniProt P08651, whole entry, looked up: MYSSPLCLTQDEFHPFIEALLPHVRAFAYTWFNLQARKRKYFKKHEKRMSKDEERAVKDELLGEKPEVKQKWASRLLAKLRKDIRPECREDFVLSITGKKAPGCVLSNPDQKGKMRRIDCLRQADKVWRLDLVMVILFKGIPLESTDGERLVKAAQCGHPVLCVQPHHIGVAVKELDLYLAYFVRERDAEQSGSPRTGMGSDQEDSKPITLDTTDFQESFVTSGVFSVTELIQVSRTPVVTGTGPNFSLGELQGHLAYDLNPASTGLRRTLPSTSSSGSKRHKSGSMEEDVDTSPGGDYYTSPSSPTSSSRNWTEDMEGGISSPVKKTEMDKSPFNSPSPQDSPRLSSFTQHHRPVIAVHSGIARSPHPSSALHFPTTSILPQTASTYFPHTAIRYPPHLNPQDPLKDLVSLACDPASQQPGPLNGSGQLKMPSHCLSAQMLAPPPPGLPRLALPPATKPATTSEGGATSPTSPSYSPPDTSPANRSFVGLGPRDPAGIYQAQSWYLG
UniProt P25963: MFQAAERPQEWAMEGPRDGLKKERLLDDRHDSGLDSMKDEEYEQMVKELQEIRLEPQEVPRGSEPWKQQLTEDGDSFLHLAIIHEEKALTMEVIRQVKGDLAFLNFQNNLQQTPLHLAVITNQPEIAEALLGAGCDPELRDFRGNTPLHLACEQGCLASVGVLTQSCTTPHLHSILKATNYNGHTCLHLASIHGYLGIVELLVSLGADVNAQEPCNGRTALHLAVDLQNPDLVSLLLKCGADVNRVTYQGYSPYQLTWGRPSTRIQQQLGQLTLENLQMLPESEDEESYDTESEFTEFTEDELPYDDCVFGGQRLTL
UniProt Q86X76: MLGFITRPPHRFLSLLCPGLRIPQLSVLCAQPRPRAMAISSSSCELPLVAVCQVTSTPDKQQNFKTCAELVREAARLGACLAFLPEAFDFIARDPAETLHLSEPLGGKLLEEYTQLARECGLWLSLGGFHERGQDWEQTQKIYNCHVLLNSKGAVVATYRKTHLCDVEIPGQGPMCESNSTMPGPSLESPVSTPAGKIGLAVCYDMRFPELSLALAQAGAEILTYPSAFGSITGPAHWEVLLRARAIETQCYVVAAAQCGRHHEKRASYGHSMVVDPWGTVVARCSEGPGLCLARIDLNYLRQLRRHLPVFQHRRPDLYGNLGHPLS
UniProt Q13952: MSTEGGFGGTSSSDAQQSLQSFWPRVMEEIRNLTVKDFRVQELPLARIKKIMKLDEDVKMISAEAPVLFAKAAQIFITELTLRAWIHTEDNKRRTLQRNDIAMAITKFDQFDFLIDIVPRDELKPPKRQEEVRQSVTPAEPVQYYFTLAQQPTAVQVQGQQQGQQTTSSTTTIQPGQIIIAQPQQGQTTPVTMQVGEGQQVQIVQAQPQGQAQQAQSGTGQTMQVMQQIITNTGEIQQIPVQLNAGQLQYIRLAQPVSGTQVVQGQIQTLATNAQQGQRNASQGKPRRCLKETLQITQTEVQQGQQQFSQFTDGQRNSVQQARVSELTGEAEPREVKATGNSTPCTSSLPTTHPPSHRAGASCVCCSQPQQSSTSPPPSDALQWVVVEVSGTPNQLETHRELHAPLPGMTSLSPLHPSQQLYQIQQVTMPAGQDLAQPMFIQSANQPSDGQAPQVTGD
UniProt Q86Y39, whole entry, looked up: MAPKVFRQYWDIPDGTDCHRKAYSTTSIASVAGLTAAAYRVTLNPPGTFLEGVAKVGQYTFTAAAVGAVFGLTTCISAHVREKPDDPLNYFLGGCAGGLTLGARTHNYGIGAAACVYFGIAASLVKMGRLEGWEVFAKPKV
UniProt Q8N8Q9: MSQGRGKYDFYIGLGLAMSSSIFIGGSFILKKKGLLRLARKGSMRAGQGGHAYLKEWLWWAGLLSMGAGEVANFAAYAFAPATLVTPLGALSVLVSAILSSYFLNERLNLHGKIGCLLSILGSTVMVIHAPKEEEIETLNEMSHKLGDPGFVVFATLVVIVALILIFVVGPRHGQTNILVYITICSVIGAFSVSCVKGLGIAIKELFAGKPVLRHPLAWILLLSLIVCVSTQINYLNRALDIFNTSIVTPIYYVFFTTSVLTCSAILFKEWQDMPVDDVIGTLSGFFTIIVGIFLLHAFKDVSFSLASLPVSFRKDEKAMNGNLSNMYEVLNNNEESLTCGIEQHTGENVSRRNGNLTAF

Experiments:
Test in all cases: log2 fold change, soluble protein after heating vs DMSO (PISA); higher = thermal stabilisation; K562 lysate, 10 uM; active = over 0.2 and 3.5 SD of the protein, either way, in both replicates (recomputed)
[1] = compound: NCC(=O)Nc1ccc(-n2nc(C(F)(F)F)cc2-c2ccc3c(ccc4ccccc43)c2)cc1
Outline: (§1)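 K562 pellets were dounce-homogenised in PBS pH 7.4 with 1 mM MgCl2, and the crude extract at 1 mg/mL protein was treated with 10 μM compound for 30 min. Aliquots were heated for 3 min across 48°C-58°C, pooled, and brought to 0.5% NP-40 at 4°C; soluble protein was the supernatant after 21,000xg for 90 min. Soluble protein was quantified by TMTpro 16plex LC-MS/MS with channel sums equalised, and reported as log2 fold change in thermal stability against DMSO controls, with values from duplicates.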

vorinostat = compound: O=C(CCCCCCC(=O)Nc1ccccc1)NO [vorinostat]
Outline: as §1

silmitasertib = compound: O=C(O)c1ccc2c(c1)nc(Nc1cccc(Cl)c1)c1ccncc12 [silmitasertib]
Outline: as §1

[2] = compound: O=C1NC(=O)C(c2cnc3ccccn23)=C1c1cn2c3c(cc(F)cc13)CN(C(=O)N1CCCCC1)CC2
Outline: as §1

entospletinib = compound: c1cn2cc(-c3ccc4cn[nH]c4c3)nc(Nc3ccc(N4CCOCC4)cc3)c2n1 [entospletinib]
Outline: as §1

Measured: log2 fold change

NEU1 (UniProt Q99519)
inactive: [1] -0.029 | vorinostat 0.079 | silmitasertib 0.007 | [2] -0.006 | entospletinib -0.025

NLK (UniProt Q9UBE8)
inactive: [1] 0.277 | vorinostat -0.161 | silmitasertib -0.061

NEK8 (UniProt Q86SG6)
inactive: [1] 0.093 | vorinostat -0.307 | silmitasertib 0.008

NET1 (UniProt Q7Z628)
inactive: [1] -0.021 | vorinostat 0 | silmitasertib -0.003 | [2] -0.26

2 neighbouring records from above, quoted:
NEK8 (UniProt Q86SG6)
inactive: [1] 0.093 | vorinostat -0.307 | silmitasertib 0.008

NET1 (UniProt Q7Z628)
inactive: [1] -0.021 | vorinostat 0 | silmitasertib -0.003 | [2] -0.26

Remaining list, next part:

NFKB2 (UniProt Q00653)
inactive: [1] -0.041 | vorinostat -0.145 | silmitasertib -0.006 | [2] 0.022 | entospletinib 0.025

NDUFB9 (UniProt Q9Y6M9)
inactive: [1] -0.018 | vorinostat 0.123 | silmitasertib -0.004 | [2] 0.006 | entospletinib -0.026

NFKBIE (UniProt O00221)
inactive: [1] -0.08 | vorinostat 0.005 | silmitasertib 0.114 | [2] -0.017 | entospletinib -0.036

NDE1 isoform 1 (UniProt Q9NXR1)
inactive: [1] -0.017 | vorinostat 0.025 | silmitasertib -0.007 | [2] -0.041 | entospletinib 0.023

NDUFA2 (UniProt O43678)
inactive: [1] -0.025 | vorinostat 0.092 | silmitasertib -0.006 | [2] 0.01 | entospletinib -0.007

NDUFS7 (UniProt O75251)
inactive: [1] -0.015 | vorinostat 0.099 | silmitasertib 0.007 | [2] -0.037 | entospletinib 0.005

NFIA isoform 4 (UniProt Q12857)
inactive: [1] -0.044 | vorinostat -0.088 | silmitasertib -0.015 | [2] 0.026

NDUFA9 (UniProt Q16795)
inactive: [1] -0.087 | vorinostat 0.045 | silmitasertib 0.045 | [2] 0.043 | entospletinib 0.042

NEU4 (UniProt C9JEA3)
inactive: [1] 0.014 | vorinostat -0.06 | silmitasertib 0.027 | [2] -0.219

NEB isoform 3 (UniProt P20929)
inactive: [1] 0.157 | vorinostat -0.057 | silmitasertib -0.059 | [2] 0.044

NDUFS5 (UniProt O43920)
inactive: [1] 0.063 | vorinostat 0.071 | silmitasertib -0.01 | [2] 0.027 | entospletinib -0.027

NDC80 (UniProt O14777)
inactive: [1] -0.047 | vorinostat -0.176 | silmitasertib 0.034 | [2] 0.012 | entospletinib 0.014

NFIC (UniProt P08651)
inactive: [1] 0.063 | vorinostat -0.083 | silmitasertib -0.026 | [2] -0.032 | entospletinib -0.025

NFKBIA (UniProt P25963)
inactive: [1] -0.105 | vorinostat -0.225 | silmitasertib 0.172 | [2] -0.082

NIBAN2 (UniProt Q96TA1)
inactive: [1] 0.005 | vorinostat -0.087 | silmitasertib 0.027 | [2] -0.009 | entospletinib -0.003

NIT1 (UniProt Q86X76)
inactive: [1] -0.005 | vorinostat 0.07 | silmitasertib -0.01 | [2] 0.036 | entospletinib 0.025

NDUFB10 (UniProt O96000)
inactive: [1] 0.016 | vorinostat 0.127 | silmitasertib 0.003 | [2] 0.036 | entospletinib 0.014

NDUFC2 (UniProt O95298)
inactive: [1] -0.073 | vorinostat 0.13 | silmitasertib -0.023 | [2] -0.029 | entospletinib -0.005

NFYC (UniProt Q13952)
inactive: [1] 0.045 | vorinostat 0.111 | silmitasertib -0.065 | [2] -0.026 | entospletinib -0.066

NDUFA11 (UniProt Q86Y39)
inactive: [1] -0.036 | vorinostat 0.109 | silmitasertib -0.021 | [2] -0.019 | entospletinib 0.021

NIPA2 (UniProt Q8N8Q9)
inactive: [1] -0.045 | vorinostat 0.128 | silmitasertib -0.114 | [2] -0.042 | entospletinib 0.114

NDUFAB1 (UniProt O14561)
inactive: [1] -0.038 | vorinostat 0.226 | silmitasertib -0.139 | [2] 0 | entospletinib -0.12
